# Assay results: PubChem BioAssay AID540256 (National Center for Advancing Translational Sciences (NCATS), 2011)
# Several values for one entry are separate records, joined by “and”; a condition that tells them apart may be missing. Identical values can stand only once. The campaign covered roughly 300,000 compounds. About 3,700 (1.2%) were called active. Inconclusive means that the source gave no clear call. Such entries were picked first, then a sample of the others. The call rests on the fitted dose curve; tested in HEK293 cells. Potencies beside an inconclusive call are fits to weak or partial responses and may not hold up.
# Assay: qHTS for Inhibitors of binding or entry into cells for Lassa Virus; further: nearly all actives have a fitted effect of over 50% in size
# Settings: Lassa virus pseudotype entry inhibition, cell reporter; activity change, negative = inhibition: at 37.9 µM (top of the series) unless noted
# On the % scale 0 is the no-effect control and ±100 the full control effect; potency means the concentration at half of the fitted maximal effect.
SMILES,Potency,"activity change, negative = inhibition"
N#CC(C#N)=Cc1c[nH]c(=O)c(C#N)c1Nc1ccccc1,"inconclusive: 31.6 µM [activator, single point]",–
Cc1cc(C)n(-c2ccc(OCC(=O)O)nn2)n1,inactive,–
CC1(C)C([N+](=O)[O-])C(c2ccc(O)cc2)NC(c2ccc(O)cc2)C1[N+](=O)[O-] (configuration not stated),"inconclusive: 6.51 µM [inhibitor, full curve, poor fit]",–
COc1ccc(CCN2CC(C(=O)N(C)Cc3ccc(C)o3)CCC2=O)cc1 (configuration not stated),"inconclusive: 11.2 µM [activator, partial curve, poor fit]",–
Cc1ccc2nc(SCC(=O)c3ccccc3)nc(=O)n2c1,active: 10 µM,–
CCN1CCN(c2nnc(-c3ccc(F)cc3)c3ccccc23)CC1,inactive,–
Cc1cc(C)c(NC(=O)Cn2c(=O)n(Cc3ccc(C(=O)NCc4ccco4)cc3)c(=O)c3sccc32)c(C)c1,"inconclusive: 8.91 µM [inhibitor, partial curve, poor fit]",–
Cc1ccc(S(=O)(=O)c2nc(-c3cccc(Cl)c3)oc2NCc2ccccc2)cc1,"inconclusive: 3.98 µM [inhibitor, partial curve, poor fit]",–
c1ccc(-c2cc3c(N4CCN(c5ccccc5)CC4)ncnc3s2)cc1,inactive,–
Cc1nnc(N2CCCC(C(=O)NCCc3ccccc3)C2)c2nn(-c3ccccc3)c(C)c12 (configuration not stated),"inconclusive: 20 µM [activator, single point]",–
Cc1ccn2cc(-c3ccc(C)c(NS(=O)(=O)c4ccc(Cl)cc4)c3)nc2c1,"inconclusive: 31.6 µM [inhibitor, single point]",–
O=C(c1cccc(COc2cccc3ccccc23)c1)N1CCCC1,active: 8.2 µM,–
CCOc1ccc(NC(=O)CSc2nc3nc(C)cc(C)n3n2)cc1,"inconclusive: 22.4 µM [inhibitor, partial curve, poor fit]",–
CC(=O)Nc1ccc(NC(=O)C(C)OC(=O)c2ccccc2NS(=O)(=O)c2cccs2)cc1 (configuration not stated),"inconclusive: 15.8 µM [activator, single point]",–
COc1ccc(OCCCC(=O)NCCc2nc3ccccc3[nH]2)cc1,inactive,–
COc1ccc(Cl)cc1C(=O)Nc1ccc(OCC(=O)N2CCOCC2)cc1,inactive,–
CCN(CC)CCN1c2ccccc2Sc2ccccc21,"inconclusive: 14.1 µM [inhibitor, single point]",–
CN(C)c1cccc(C(=O)OCC(=O)Nc2ccccc2Cl)c1,inactive,–
Cc1nnc(SCc2c(Cl)cccc2Cl)s1,inactive,–
CCOc1ccc(CNC(=O)Cn2c(=O)c3cccn3c3ccccc32)cc1,"inconclusive: 35.5 µM [inhibitor, single point] and inconclusive: 28.2 µM [inhibitor, partial curve, poor fit]",–
COc1ccc(/C=C/C(=O)NC(=S)Nc2ccc(S(N)(=O)=O)cc2)cc1OC,"inconclusive: 1.26 µM [inhibitor, single point]",–
COc1cc2c(cc1OC)C(C(=O)Nc1ccc3c(c1)OCCO3)C1c3ccccc3CCN1C2=O (configuration not stated),inactive,–
O=C(Cc1c(C(=O)O)[nH]c2ccccc12)Nc1cccc(C(F)(F)F)c1,"inconclusive: 7.08 µM [activator, full curve, poor fit]",–

SMILES,Potency,"activity change, negative = inhibition"
CCOc1ccc(OCC)c(NS(=O)(=O)c2ccc3c(c2)CCN3C(=O)C2CCC2)c1,"inconclusive: 10.3 µM [inhibitor, partial curve, poor fit]",–
Cc1c(Cl)ccc2sc(N3CCN(C(=O)CS(=O)(=O)c4ccccc4)CC3)nc12,inactive,–
N#C/C(=C/c1ccc(-c2ccc(Br)cc2)o1)C(=O)NC1CCCCC1,"inconclusive: 20 µM [inhibitor, partial curve, poor fit]",–
c1ccc(COC2CCCN(Cc3nc(-c4cccs4)no3)C2)nc1 (configuration not stated),inactive,–
O=C(COC(=O)CCc1ccccc1)NCc1ccc2c(c1)OCO2,inactive,–
C/C(=N\Nc1ccc(C)c(Cl)c1)c1ccncc1,"inconclusive: 5.62 µM [inhibitor, single point]",–
CC(C)(C)NC(=O)C(c1ccc(O)cc1)N(Cc1ccccc1)C(=O)CCC(=O)Nc1nccs1 (configuration not stated),inactive,–
CCCC1=NN2C(=N)/C(=C\c3ccc(OCCOc4ccc(NC(C)=O)cc4)c(OC)c3)C(=O)N=C2S1,"inconclusive: 0.891 µM [activator, full curve, poor fit]",–
CCC(=O)N1CCc2cc(S(=O)(=O)NC(C(=O)Nc3cc(OC)cc(OC)c3)C(C)C)ccc21 (configuration not stated),inactive,–
Cn1cnc(S(=O)(=O)N2CCCC(C(=O)Nc3ccc(OC(F)(F)F)cc3)C2)c1 (configuration not stated),inactive,–
COc1ccc(-c2cc(C(=O)NCC3CCCO3)c3cc(C)ccc3n2)cc1 (configuration not stated),inactive,–
Cc1ccc(N(CC(O)CN(C)C)S(=O)(=O)c2ccccc2)cc1 (configuration not stated),"inconclusive: 17.8 µM [activator, partial curve, poor fit]",–
COC(=O)c1c(C)c2c(C)cc3ccccn3c-2c1C(=O)OC,inactive,–
O=C(NCCc1ccccc1)c1ccc(CSc2nc3ccncc3n2Cc2ccccc2)cc1,"inconclusive: 10 µM [inhibitor, partial curve, poor fit]",–
Cc1ccc(/C=N/NC(=O)c2ccc(-n3cnnn3)cc2)cc1,"inconclusive: 14.1 µM [inhibitor, partial curve, poor fit]",–
Cc1ccc(NS(=O)(=O)c2ccc(C(=O)N3CCCCCCC3)cc2)cc1,"inconclusive: 8.91 µM [inhibitor, partial curve, poor fit]",–
COc1cc([N+](=O)[O-])ccc1NC(=O)CSc1nncn1-c1cccnc1,"inconclusive: 0.126 µM [inhibitor, full curve, poor fit]",–
c1ccc(-c2[nH]ncc2CN2CCc3ccccc3C2)cc1,"inconclusive: 1.26 µM [inhibitor, single point]",–
Cc1onc(-c2c(F)cccc2Cl)c1C(=O)NC1CCCCCC1,"inconclusive: 4.47 µM [inhibitor, partial curve]",–
COc1cnn(-c2ccccc2)c(=O)c1SCc1ccc(Cl)c(Cl)c1,inactive,–
O=C(O)c1ccccc1C(=O)c1ccc(N2CCCC2)c([N+](=O)[O-])c1,inactive,–
Cc1cc(F)ccc1NCc1cccnc1,"inconclusive: 0.58 µM [activator, full curve, poor fit]",–
Cn1c(=O)[nH]c(=O)c2c1nc(Br)n2Cc1cccc(Br)c1,"inconclusive: 1.78 µM [inhibitor, full curve, poor fit]",–

SMILES,Potency,"activity change, negative = inhibition"
O=C(Cc1ccc(-c2ccccc2)cc1)NNC(=S)NCc1ccco1,"inconclusive: 14.1 µM [inhibitor, single point]",–
O=C1CCC(=O)N1c1nc2n(n1)C(c1ccccc1)C=C(c1ccc(Br)cc1)N2 (configuration not stated),inactive,–
COc1ccc(C2=NN(C(=O)c3cccs3)C(c3ccccc3OC)C2)cc1OC (configuration not stated),"inconclusive: 10 µM [inhibitor, partial curve, poor fit]",–
Cc1ccc(-c2ccc(CO)o2)cc1N,inactive,–
Cc1ccc(-n2c3c(cc(-c4nc(-c5ccc(Cl)cc5)cs4)c2=O)C(=O)CC(C)(C)C3)cc1,inactive,–
COc1ccccc1C(=O)Nc1nnc(C)s1,inactive,–
COc1cc(C(=O)NC(c2ccccc2)c2ccccc2)cc(OC)c1C,inactive,–
CC(=O)Nc1ccc(N=Nc2ccccc2)cc1[N+](=O)[O-],–,inconclusive: 12.6% [activator]
O=C(COc1ccccc1)Nc1nc(-c2ccc(S(=O)(=O)N3CCOCC3)cc2)cs1,"inconclusive: 13 µM [inhibitor, partial curve, poor fit]",–
CC(C)Sc1ncc(Cl)c(C(=O)Nc2ccc(S(=O)(=O)N3CCCCC3C)cc2)n1 (configuration not stated),"inconclusive: 12.6 µM [inhibitor, single point]",–
Cc1ccc(C(=O)N/C(=C\c2ccc(-c3cccc([N+](=O)[O-])c3)o2)C(=O)NCCCN(C)C)cc1,"inconclusive: 35.5 µM [inhibitor, single point]",–
CC(C)(C)NC(=O)NC(=O)COC(=O)C1=COCCO1,"inconclusive: 31.6 µM [activator, partial curve, poor fit]",–
COC(=O)Cc1ccc(N(Cc2ccccc2F)S(=O)(=O)c2ccc(C)cc2)cc1,"inconclusive: 29.1 µM [inhibitor, single point]",–
O=C(N/N=C1/C(=O)c2cccc3cccc1c23)c1ccc(Cl)cc1,"inconclusive: 35.5 µM [inhibitor, single point]",–
C=CCN1C(=O)C(CC(=O)Nc2ccccc2)N(Cc2ccccn2)C1=S (configuration not stated),"inconclusive: 22.4 µM [inhibitor, single point]",–
O=C(Nc1ccc(F)cc1)c1cccc(N2C(=O)C3C4CCC(C4)C3C2=O)c1 (configuration not stated),inactive,–
Cn1c(=O)c2[nH]c(-c3ccccc3)nc2n(C)c1=O,"inconclusive: 0.184 µM [activator, full curve, poor fit]",–
O=C(NCCOC(=O)Nc1cccc2ccccc12)OCc1ccccc1,"inconclusive: 35.5 µM [inhibitor, single point]",–
CCCCN(C(=O)CCC(=O)Nc1cc(C)on1)C(C(=O)NC1CCCC1)c1ccc(OCC)cc1 (configuration not stated),"inconclusive: 35.5 µM [inhibitor, single point]",–
CC(C)(C)NC(=O)NC(=O)CN1CCN(C(c2ccccc2)c2ccccc2)CC1,"inconclusive: 7.94 µM [inhibitor, partial curve, poor fit]",–
COc1ccc(OC(C)C(=O)NCc2nc(-c3ccc(Cl)cc3)no2)cc1 (configuration not stated),"inconclusive: 35.5 µM [inhibitor, single point]",–
